Library screen at single concentrations

By UniProt entry, the sequences of proteins in these tests, tags left out.
UniProt P9WFT3, whole entry: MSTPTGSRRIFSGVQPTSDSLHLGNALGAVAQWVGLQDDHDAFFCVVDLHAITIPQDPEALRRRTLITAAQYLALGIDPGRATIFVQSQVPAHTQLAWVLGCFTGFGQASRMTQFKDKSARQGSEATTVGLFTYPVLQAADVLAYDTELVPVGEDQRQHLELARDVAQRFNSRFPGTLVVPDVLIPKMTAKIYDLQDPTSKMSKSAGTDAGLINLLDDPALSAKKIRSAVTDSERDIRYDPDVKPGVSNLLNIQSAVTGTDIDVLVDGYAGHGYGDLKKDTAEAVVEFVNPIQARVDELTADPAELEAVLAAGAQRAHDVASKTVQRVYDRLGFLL
UniProt P9WPC5, whole entry: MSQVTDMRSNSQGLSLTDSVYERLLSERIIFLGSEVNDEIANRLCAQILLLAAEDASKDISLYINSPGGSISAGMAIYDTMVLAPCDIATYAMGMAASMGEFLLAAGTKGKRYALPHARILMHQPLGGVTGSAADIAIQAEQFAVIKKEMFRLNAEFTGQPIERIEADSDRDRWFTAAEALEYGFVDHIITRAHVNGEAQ
UniProt P9WPC3, whole entry partner: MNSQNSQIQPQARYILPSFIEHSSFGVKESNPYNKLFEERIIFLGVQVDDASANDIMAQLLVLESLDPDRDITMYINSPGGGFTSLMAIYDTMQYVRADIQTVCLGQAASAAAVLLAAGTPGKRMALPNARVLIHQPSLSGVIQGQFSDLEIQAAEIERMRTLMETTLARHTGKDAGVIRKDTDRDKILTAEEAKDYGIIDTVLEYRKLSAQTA
UniProt P9WNZ1, whole entry: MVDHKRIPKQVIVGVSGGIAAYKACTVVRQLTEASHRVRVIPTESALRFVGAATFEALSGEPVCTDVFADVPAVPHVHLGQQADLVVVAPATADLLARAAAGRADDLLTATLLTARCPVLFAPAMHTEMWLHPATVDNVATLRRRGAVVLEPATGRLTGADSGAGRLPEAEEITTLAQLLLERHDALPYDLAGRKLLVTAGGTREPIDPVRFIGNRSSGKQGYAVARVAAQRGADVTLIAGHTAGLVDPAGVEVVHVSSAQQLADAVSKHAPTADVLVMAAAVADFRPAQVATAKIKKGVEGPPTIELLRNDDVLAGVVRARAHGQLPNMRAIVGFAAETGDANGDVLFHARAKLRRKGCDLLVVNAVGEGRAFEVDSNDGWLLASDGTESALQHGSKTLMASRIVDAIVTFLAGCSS
UniProt I6X8D2, whole entry: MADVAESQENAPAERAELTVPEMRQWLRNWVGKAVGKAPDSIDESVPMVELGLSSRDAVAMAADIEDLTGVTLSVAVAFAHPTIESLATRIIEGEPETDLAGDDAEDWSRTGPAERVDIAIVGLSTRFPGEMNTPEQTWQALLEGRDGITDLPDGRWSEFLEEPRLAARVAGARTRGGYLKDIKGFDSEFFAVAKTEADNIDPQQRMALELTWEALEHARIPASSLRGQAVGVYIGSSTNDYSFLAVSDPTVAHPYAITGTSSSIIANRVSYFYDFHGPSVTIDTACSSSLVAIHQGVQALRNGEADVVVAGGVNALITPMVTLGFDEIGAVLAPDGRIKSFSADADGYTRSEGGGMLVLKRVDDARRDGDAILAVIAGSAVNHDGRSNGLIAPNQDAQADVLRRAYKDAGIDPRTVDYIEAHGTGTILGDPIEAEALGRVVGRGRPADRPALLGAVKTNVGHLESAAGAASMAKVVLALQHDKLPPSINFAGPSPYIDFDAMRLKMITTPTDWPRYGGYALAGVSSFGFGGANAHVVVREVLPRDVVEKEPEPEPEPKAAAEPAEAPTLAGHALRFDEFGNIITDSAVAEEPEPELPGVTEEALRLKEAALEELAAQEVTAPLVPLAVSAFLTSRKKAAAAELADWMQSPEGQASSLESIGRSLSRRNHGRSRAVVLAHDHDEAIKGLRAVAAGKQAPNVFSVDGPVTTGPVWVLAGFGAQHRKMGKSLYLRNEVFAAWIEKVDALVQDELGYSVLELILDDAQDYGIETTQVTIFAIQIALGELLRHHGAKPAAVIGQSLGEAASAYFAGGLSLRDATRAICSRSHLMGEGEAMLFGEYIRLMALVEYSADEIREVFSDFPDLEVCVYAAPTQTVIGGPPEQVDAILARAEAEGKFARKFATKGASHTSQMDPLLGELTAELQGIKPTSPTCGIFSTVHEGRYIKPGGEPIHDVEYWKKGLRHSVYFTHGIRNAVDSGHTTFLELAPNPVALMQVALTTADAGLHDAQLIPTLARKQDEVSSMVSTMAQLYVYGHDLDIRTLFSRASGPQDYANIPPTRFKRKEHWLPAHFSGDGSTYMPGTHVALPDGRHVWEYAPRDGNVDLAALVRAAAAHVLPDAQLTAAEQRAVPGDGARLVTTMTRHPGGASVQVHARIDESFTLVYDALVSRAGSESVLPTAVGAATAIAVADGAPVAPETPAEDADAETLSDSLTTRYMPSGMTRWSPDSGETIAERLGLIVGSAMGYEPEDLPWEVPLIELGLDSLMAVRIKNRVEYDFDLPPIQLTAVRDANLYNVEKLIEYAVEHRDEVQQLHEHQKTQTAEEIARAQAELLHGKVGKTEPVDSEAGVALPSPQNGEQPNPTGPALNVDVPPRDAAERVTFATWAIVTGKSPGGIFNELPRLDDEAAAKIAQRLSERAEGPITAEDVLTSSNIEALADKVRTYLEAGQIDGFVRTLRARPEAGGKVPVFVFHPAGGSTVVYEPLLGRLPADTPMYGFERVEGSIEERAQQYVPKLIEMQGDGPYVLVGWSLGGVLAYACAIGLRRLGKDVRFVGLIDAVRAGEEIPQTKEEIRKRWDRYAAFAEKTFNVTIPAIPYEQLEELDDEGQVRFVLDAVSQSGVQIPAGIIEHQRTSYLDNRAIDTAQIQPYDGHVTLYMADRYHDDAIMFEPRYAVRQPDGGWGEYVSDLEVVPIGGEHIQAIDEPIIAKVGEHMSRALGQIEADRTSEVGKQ

From ChEMBL document CHEMBL3988442, “University of Dundee, Small-Polar-MMV Screening Library” (2021).

A: 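Enzyme assay of tryptophanyl-tRNA synthetase; the read-out is not stated. Target: Tryptophan-tRNA ligase, Mycobacterium tuberculosis (UniProt P9WFT3). Concentration: 10 µM. Direction is not recorded; retested compounds ran higher, which suggests that high means inhibition. About 65,000 compounds were tested under these conditions; 0.098% (about 64) showed 50% or more at least once.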
B: 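Assay of Toxoplasma gondii numbers, read through their beta-galactosidase reporter with a colour substrate. Tested at 10 µM. Higher reads as fewer parasites (inferred from which compounds were picked for retests). Of about 67,000 compounds tested this way, about 260 (0.38%) reached 50% or more in at least one test.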
C: 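ClpP1P2, Mycobacterium tuberculosis (UniProt P9WPC5 and UniProt P9WPC3). Protease assay of ClpP1P2, read by the AMC dye that it sets free. Concentration: 50 µM. Higher reads as stronger inhibition, judged from the few compounds that gave an IC50. Most other retested compounds had strongly negative values. Size under these conditions: about 69,000 compounds, about 10 of them at 50% or above in at least one test.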
D: 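Coenzyme A biosynthesis protein CoaBC, Mycobacterium tuberculosis (UniProt P9WNZ1). Enzyme assay of CoaBC with a phosphate dye (Biomol Green) read at 650 nm. Concentration: 30 µM. Higher reads as stronger inhibition, judged from the few compounds that gave an IC50. Most strong results did not repeat in a second test. Size under these conditions: about 67,000 compounds, about 40 of them at 50% or above in at least one test.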
E: 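Polyketide synthase Pks13, Mycobacterium tuberculosis (UniProt I6X8D2). Enzyme assay of the thioesterase domain of polyketide synthase 13; the read-out is not stated. Concentration: 30 µM. The record gives no direction; the compounds picked for IC50 retests had high values, so higher reads as stronger inhibition. Of about 67,000 compounds tested this way, about 300 (0.46%) reached 50% or more in at least one test.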

Values are the deposited “Percent Effect”, in %.
The record does not define 0% and 100%; most values in the screen are far below 50% and negative numbers occur (in some assays of this library far below -100).
This is an unselected part of the compounds tested.
A dash means the value is not listed here; it may have been measured.

compound | A | B | C | D | E
[H][C@]12CC[C@]([H])(CN(C(=O)Nc3ccccc3C(F)(F)F)C1)N(C)C2=O | - | -28.36 | - | - | -
CNc1cc(C)nc(N2Cc3cnn(Cc4ccc(F)cc4)c3C2)n1 | -2.829 | -0.8274 | 14.55 | 7.969 | -18.75
O=C(C1CC1)N1CCC2(CCCN2Cc2ccc(F)cc2)CC1.O=C(O)C(F)(F)F | - | -12.32 | - | - | -
CC(NC(=O)CCc1cccc(OC2CCCC2)c1)c1nncn1C (stereo not given) | -2.197 | -4.315 | -9.985 | 5.976 | -11.68
O=C(C1CCCOC1)N(CC(F)F)c1cccc(Cl)c1 (stereo not given) | -0.4854 | -0.9029 | 9.893 | 0.9569 | -19.2
COCCNc1cc(-c2ccccc2C(N)=O)c2cc[nH]c2n1 | 3.303 | 1.183 | -13.97 | 3.083 | 26.93
CC1CCCCN1C1CN(c2ccnc(C(=O)NCc3ccco3)c2)C1 (stereo not given) | -1.019 | 3.029 | 4.831 | 4.878 | -10.17
COCCC(=O)Nc1cnn(COc2ccc(F)cc2Cl)c1 | 7.599 | 12.37 | -10.93 | 8.152 | -0.7306
CCc1nccn1C1CCCN(C(=O)Cc2cn3ccccc3n2)C1 (stereo not given) | -4.191 | 1.856 | 17.61 | 9.661 | -18.52
CN1CCC(N(CCc2ccccc2)C(=O)c2ccoc2)CC1 | -0.311 | 0.2695 | -18.39 | -2.058 | -4.8
CN1CCN(c2cccc(Cl)c2CNCCS(C)(=O)=O)CC1 | -2.617 | 0.1997 | 4.426 | -4.481 | -5.484
O=C(CCc1cccnc1)Nc1ccc(OCC2CCOCC2)cc1 | -0.6791 | 2.704 | -3.751 | 6.585 | -24.14
CSCc1cccc(S(=O)(=O)NCCCn2ccnc2)c1 | -1.243 | 13.03 | -3.665 | -41.36 | -30.77
CC(C)CN1CC2(CCN(C(=O)c3cnccn3)CC2)CC1=O | 3.671 | -4.726 | 13.15 | 2.405 | -0.7599
Cc1ccc(NC(=O)N2CCC(NC(=O)c3ccc(C)o3)CC2)cc1 | 3.049 | 0.6497 | 8.624 | 2.308 | -17.4
CC1CCC(NS(=O)(=O)CC(=O)NC2(C(N)=O)CCCC2)CC1 (stereo not given) | 1.872 | -8.739 | 1.238 | 2.913 | -0.4649
Cc1cn2nc(N3CCn4c(nnc4C(C)C)C3)sc2n1 | 9.185 | -4.957 | -1.195 | -0.4464 | 7.078
CCn1cc(-c2cc(-c3cc(CN(C)C)cs3)nc(N)c2C#N)c(C)n1 | -3.904 | 13.83 | -546.2 | 0.3699 | 76.86
Cc1ncc(C)c(N2CCC(Cc3ccc(Cl)cc3)(C(=O)O)CC2)n1 | 0.6387 | - | -16.37 | 5.043 | -
COc1ccc(Br)cc1CN(C)C(C)c1nc(C)no1 (stereo not given) | -0.4841 | 6.81 | -9.32 | 0.495 | 0.9576
Cc1noc(CCCNC(=O)CNC(=O)c2cc3ccccc3[nH]2)n1 | 2.168 | 4.234 | -10.77 | 5.607 | -8.073
Cc1ccccc1-n1cnc(Cl)c1C(=O)O | 0.1468 | -0.4165 | 16.16 | 5.124 | -82.6
CCCc1nnc(N2CC[C@@](O)(C3CCOCC3)[C@H](C)C2)s1 | -1.112 | 10.05 | -5.361 | 2.554 | -13.48
COc1ccc(Br)cc1SCCC(N)=O | 1.935 | 5.626 | -2.453 | 4.04 | -1.734
CN(C)CCNC(=O)CNC(=O)N1CCc2c([nH]c3ccc(Cl)cc23)C1 | 5.226 | -1.913 | 6.083 | 8.479 | -32.05
[H][C@@]12CCN(Cc3scnc3C)C[C@]1(C(=O)N1CCCO1)CCO2 | - | -3.386 | - | - | -
CC(C)CNC(=O)c1ccc(NC(=O)NC(C)C)cc1Cl | 0.1271 | -0.268 | 1.051 | 6.349 | -0.5941
Cc1cnn(CC2CCN(c3cc(C(C)C)nc4ccnn34)CC2)c1 | 0.243 | -5.472 | -4.945 | 2.381 | -7.729
O=C1COc2cc(C(=O)NS(=O)(=O)c3cc(Cl)ccc3Cl)ccc2N1 | -8.427 | -25.76 | -1.427 | 0.3911 | -21.94
CC(C)(C)c1nnc(CN2CCN(C(=O)CC3CCCCC3)CC2)o1 | -0.7936 | -4.298 | -4.385 | 0.641 | -42.89
Cc1cnc(C(=O)N2CCC3(CCN3Cc3ccc(F)cc3)C2)cn1 (stereo not given) | - | - | -2.447 | 0.3713 | 0.4701
Cc1cccc(-n2nc(CC(C)C)nc2CCC(=O)N(C)C)c1 | 6.41 | -7.346 | -10.85 | 2.211 | 1.799
Cn1ncc(N2CCC(CNC(=O)[C@@H](N)c3ccccc3)CC2)cc1=O | 1.077 | 6.789 | -12.18 | 5.455 | -20.9
CN(C(=O)c1ccnn1C)[C@@H]1CCC[C@@H](Oc2ccccc2)[C@@H]1O | -7.13 | -27.76 | -3.685 | 2.19 | 11.41

Once more, the final 4:

compound,A,B,C,D,E
Cc1cnc(C(=O)N2CCC3(CCN3Cc3ccc(F)cc3)C2)cn1 (stereo not given),-,-,-2.447,0.3713,0.4701
Cc1cccc(-n2nc(CC(C)C)nc2CCC(=O)N(C)C)c1,6.41,-7.346,-10.85,2.211,1.799
Cn1ncc(N2CCC(CNC(=O)[C@@H](N)c3ccccc3)CC2)cc1=O,1.077,6.789,-12.18,5.455,-20.9
CN(C(=O)c1ccnn1C)[C@@H]1CCC[C@@H](Oc2ccccc2)[C@@H]1O,-7.13,-27.76,-3.685,2.19,11.41